Where cells or extracts were used, other partners may take part. Tags and fusion partners may be left off the protein sequences shown. For some of these results: The exact form of at least one protein or probe is not confirmed.

Data on four sequences can be found in patent US20050226848, “Transcriptional regulation of gene expression by small double-stranded modulatory RNA” (published 2005).

The target of data set [1] is T1, NRSF/REST (cMyc-tagged) (UniProt Q13127).
T1 sequence (looked up, limits assumed): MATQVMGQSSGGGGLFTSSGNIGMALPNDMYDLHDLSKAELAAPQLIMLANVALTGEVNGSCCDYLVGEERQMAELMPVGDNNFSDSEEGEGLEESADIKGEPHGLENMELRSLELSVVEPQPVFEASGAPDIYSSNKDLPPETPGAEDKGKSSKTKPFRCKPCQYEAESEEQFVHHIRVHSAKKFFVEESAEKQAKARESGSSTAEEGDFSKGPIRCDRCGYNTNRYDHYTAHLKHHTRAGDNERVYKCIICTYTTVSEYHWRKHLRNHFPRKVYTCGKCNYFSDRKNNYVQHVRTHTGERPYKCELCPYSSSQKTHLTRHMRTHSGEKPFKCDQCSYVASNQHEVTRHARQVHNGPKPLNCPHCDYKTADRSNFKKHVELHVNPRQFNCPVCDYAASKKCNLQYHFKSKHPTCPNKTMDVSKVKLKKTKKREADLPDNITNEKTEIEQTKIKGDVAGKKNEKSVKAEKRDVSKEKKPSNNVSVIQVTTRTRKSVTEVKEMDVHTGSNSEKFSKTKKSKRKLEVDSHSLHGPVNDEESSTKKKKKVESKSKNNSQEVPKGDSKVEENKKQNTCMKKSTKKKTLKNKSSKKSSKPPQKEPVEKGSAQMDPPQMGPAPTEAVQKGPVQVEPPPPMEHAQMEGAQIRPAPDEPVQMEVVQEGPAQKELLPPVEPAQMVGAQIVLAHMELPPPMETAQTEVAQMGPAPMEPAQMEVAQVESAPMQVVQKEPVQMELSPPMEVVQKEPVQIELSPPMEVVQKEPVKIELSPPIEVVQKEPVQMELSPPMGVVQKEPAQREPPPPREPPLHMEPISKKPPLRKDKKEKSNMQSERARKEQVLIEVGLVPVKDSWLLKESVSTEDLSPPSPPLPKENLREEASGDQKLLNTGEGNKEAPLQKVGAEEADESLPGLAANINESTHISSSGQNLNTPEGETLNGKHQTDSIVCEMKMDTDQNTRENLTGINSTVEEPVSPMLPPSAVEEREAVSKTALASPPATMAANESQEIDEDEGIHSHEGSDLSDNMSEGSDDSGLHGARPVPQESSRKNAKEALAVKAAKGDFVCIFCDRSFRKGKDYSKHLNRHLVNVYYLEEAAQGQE
As to the kind of experiment: EMSA. As to conditions: nucleic acid fixed at 20 uM, protein in a lysate after overexpression.

The target of data set [2] is T2, NRSF/REST (endogenous) (UniProt O54963).
T2 sequence (looked up, limits assumed): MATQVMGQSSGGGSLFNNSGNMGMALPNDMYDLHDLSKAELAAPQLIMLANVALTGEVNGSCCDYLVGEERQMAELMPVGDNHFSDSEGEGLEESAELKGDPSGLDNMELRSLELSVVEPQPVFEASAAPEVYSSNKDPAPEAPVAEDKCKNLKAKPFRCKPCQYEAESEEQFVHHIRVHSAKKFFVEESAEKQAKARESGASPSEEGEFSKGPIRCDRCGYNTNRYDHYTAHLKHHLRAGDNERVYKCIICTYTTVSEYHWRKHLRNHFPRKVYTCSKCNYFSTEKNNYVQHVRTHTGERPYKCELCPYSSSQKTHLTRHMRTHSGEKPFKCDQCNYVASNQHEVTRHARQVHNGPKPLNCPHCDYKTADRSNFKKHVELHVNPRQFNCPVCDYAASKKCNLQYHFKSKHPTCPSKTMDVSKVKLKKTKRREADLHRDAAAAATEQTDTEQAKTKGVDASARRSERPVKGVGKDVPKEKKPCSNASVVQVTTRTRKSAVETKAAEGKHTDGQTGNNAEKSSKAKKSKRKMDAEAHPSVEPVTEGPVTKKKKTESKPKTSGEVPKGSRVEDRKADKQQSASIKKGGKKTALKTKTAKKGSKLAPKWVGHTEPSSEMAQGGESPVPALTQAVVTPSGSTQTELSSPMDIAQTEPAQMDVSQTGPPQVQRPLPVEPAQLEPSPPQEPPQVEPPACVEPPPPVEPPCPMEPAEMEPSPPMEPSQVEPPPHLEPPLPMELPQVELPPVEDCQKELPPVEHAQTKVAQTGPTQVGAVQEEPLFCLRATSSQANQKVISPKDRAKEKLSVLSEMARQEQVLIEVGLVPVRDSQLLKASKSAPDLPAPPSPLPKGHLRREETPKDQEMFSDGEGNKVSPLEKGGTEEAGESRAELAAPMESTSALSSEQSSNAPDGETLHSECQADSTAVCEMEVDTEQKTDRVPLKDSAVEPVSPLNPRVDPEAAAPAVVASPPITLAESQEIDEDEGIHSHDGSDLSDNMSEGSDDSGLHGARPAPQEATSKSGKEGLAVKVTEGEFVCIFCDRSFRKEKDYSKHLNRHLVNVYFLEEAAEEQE
Briefly: pull-down. As to conditions: streptavidin beads, western blot, protein in an extract.

On to “TTCAGCACCACGGACAGCGCC (double strand) [NRSE/RE1 dsDNA]”, for which, in data set [1] (shift only at highest protein concentration tested), the binding result is “binds”.

On to “UUCAGCACCACGGACAGCGCC / GGCGCUGUCCGUGGUGCUGAA [NRSE dsRNA, biotin-labeled]”, for which the binding result in data set [2] (60 mM KCl, 2.5 mM EDTA, 4 C, wash 350 mM KCl, label: biotin (biotin-UTP and biotin-CTP, 1:5 to natural), variant of NRSE dsRNA) is recorded as “binds”.

For “TTCAGCACCACGGACAGCGCC (double strand) [NRSE dsDNA, biotin-labeled]”, the binding result in data set [2] (positive control, label: biotin, variant of NRSE/RE1 dsDNA) was “binds”.

Consider “UUCAGCACCACGGACAGCGCC / GGCGCUGUCCGUGGUGCUGAA [NRSE dsRNA]”, for which, in data set [1] (shift at 16-fold lower protein than needed for NRSE dsDNA), the binding result is given as “binds”.
